This is one part of the list.
System: T1, CTL2-GFP (C. trachomatis L2/434/Bu, GFP-expressing)
T1 construct: L2/434/Bu, GFP-expressing
Parameters: species or system HeLa; Intracellular C. trachomatis growth in HeLa cells, bulk GFP fluorescence relative to DMSO
Conditions: bulk GFP, single well; 28.5 h, 10 µM; inhibitor

Compound	% of control remaining
COc1ccc(CNC(=O)N(Cc2cccnc2)Cc2ccc3c(c2)OCO3)cc1OC [CBK159456]	142.464%
CCNC(=O)NC[C@H]1C[C@@H]2CCN1C[C@@H]2c1cc(-c2ccccc2)nc(C)n1 [CBK289125]	99.5879%
CCN(CC)C(=O)CN1CCC(Oc2cncc(OCc3cccnc3)n2)C1 (centres unmarked) [CBK084461]	77.0129%
NS(=O)(=O)c1ccc(CNC(=O)c2cc(-c3cccnc3)nc3ccc(Br)cc23)cc1 [CBK267740]	128.389%
CCOC(=O)C1CCN(Cc2nc(-c3ccc(OC)c(OC)c3)no2)CC1 [CBK268852]	132.046%
CCOc1ccccc1-c1ccccc1NC(=O)c1ccc(-n2nc(C)cc2C)cc1 [CBK285845]	68.6533%
Cc1cccc(-c2noc(CNC(=O)CSc3ccccc3)n2)c1 [CBK270209]	100.833%
Cc1ccc(CN(Cc2c[nH]cn2)C2CC(C)(C)NC(C)(C)C2)o1 [CBK283175]	114.5%
CS(=O)(=O)N1C[C@@H]2CCCCN(Cc3cccc(F)c3)[C@@H]2C1 [CBK285514]	120.533%
O=C(NC[C@H]1CCCN(C(=O)c2cccs2)C1)c1ccco1 [CBK284261]	164.6%
N#Cc1cccc(Nc2cncc(-c3cccs3)n2)c1 [CBK066030]	120.611%
COc1ccc(C(=O)N2C[C@H]3Cc4c(n[nH]c4C(F)F)[C@H]3C2)s1 [CBK283425]	123.169%
CCc1nn(CC(=O)N2CCCC2)c(=O)c2cc3oc(C)cc3n12 [CBK283584]	114.061%
O=C1NC(=O)C(CC(=O)N2CCC3(CCN(Cc4ccccc4)C3)C2)N1 (centres unmarked) [CBK136850]	88.7114%
CN1CCCc2cc(CN3CCC4(CCCNC4=O)CC3)ccc21 [CBK284876]	113.887%
COCCC(=O)Nc1cnc(-c2ccc(F)c(Cl)c2)c(-c2cccnc2)n1 [CBK036938]	173.966%
Fc1cc(Br)c(CNCc2cocn2)c(N2CCCCC2)c1F [CBK304792]	126.681%
CC(NC(=O)N(Cc1ccc(-c2ccccc2)cc1)CC(C)(C)CN)c1cccc2ccccc12 (centres unmarked) [CBK002426C]	25.4012%
CN1CCN(Cc2c(-c3ccc(F)cc3)[nH]c3ncccc23)CC1 [CBK285335]	149.837%
CN1CCN(C(=O)CNS(=O)(=O)c2cc(Br)c(Cl)s2)CC1 [CBK034482]	93.9157%
O=C(O)C1C2C=CC(C2)C1C(=O)N1CCN(Cc2ccccc2Cl)CC1 (centres unmarked) [CBK270334]	141.554%
Cc1cccc(C(=O)Nc2cc(NC(=O)c3cccc(C)c3)cc(C(=O)O)c2)c1 [CBK269649]	127.758%
CCOC(=O)CN1CCC(Oc2nccnc2OCC2COc3ccccc3O2)CC1 (centres unmarked) [CBK082989T]	112.791%
Cc1cc(=O)[nH]c(CCNc2cc([C@H]3C[C@@H](N)C3)nc(C3CC3)n2)n1 [CBK307651]	115.22%
O=C(NC1CCc2ccccc21)N1CCN(Cc2ccccc2)CC1 (centres unmarked) [CBK155662]	119.366%
Cc1nc(C(Cc2ccsc2)NC(=O)Cn2ccnc2)sc1C (centres unmarked) [CBK284777]	110.011%

Compound	% of control remaining
O=C1CC2(CCN(S(=O)(=O)Cc3ccc(Cl)cc3)CC2)CN1 [CBK283355]	95.1785%
CC(CNC(=O)C(C)(C)C)NC(=O)C(C)(C)C (centres unmarked) [CBK265443]	132.052%
CSc1ccc(CN(CCO)CCO)cc1 [CBK261931]	114.995%
O=C(Cc1c[nH]c2ccccc12)N1CCCC1c1ccc(F)cc1 (centres unmarked) [CBK297927]	93.3884%
CC(C)C(=O)Nc1sc2c(c1C(=O)NCc1cccnc1)CCC2 [CBK306144]	124.863%
NC(=O)Cn1c(=O)n(CCc2ccccc2)c(=O)c2c3c(sc21)CCCC3 [CBK267665]	97.3181%
CCC(=O)NCc1ccc(-c2cc(CN(C)C)n(C)n2)cc1 [CBK281668]	116.385%
CN(C)S(=O)(=O)Nc1ccccc1C(N)=O [CBK264382]	107.304%
Cc1ccc(S(=O)(=O)Nc2sc3c(c2C(=O)N2CCN(C)CC2)CCCC3)cc1[N+](=O)[O-] [CBK028650]	113.672%
O=S(=O)(Nc1cccc(-c2nnn[nH]2)c1)c1ccc(Br)s1 [CBK160377]	115.946%
O=C(Oc1ccccc1)c1cc(Cl)cnc1Cl [CBK090320]	92.9464%
CN(C)S(=O)(=O)N(CC(=O)Nc1ccccc1C(F)(F)F)c1ccccc1 [CBK268665]	118.102%
Oc1ccc(-n2cc(-c3ccccc3C(F)(F)F)nn2)cc1 [CBK112971]	101.221%
Cc1n[nH]c(NC(=O)/C=C/C(=O)O)c1-c1ccc(F)cc1 [CBK287068]	95.5529%
C=Cn1cc(CN2CCCC(c3cc4cccnc4[nH]3)C2)c(C)n1 (centres unmarked) [CBK284944]	75.7041%
COc1ccc([C@H]2CN(C(=O)c3ccccc3)[C@@H]3CCN(Cc4cccs4)C[C@H]23)cc1 [CBK285582]	81.6503%
COc1ccc2[nH]c3c(c2c1)CCNC31CCN(CCCN2C(=O)C3CCCCC3C2=O)C1 (centres unmarked) [CBK059518]	261.082%
O=C(Cc1ccc(-c2ccccc2)cc1)N1CCC2(CC1)Nc1ccccc1S(=O)(=O)N2 [CBK286189]	128.936%
COCC(C)NC(=O)c1cnn2c(C(F)(F)F)cc(-c3cccs3)nc12 (centres unmarked) [CBK307417]	143.237%
O=C1OC(c2ccccc2)=C/C1=C1/C(=O)Nc2ccccc21 [CBK115375]	119.514%
COCC(=O)Nc1cc(OC)c(Cl)cc1OC [CBK264448]	134.2%
Cc1ccc(Oc2ccc(CNC(=O)c3sc4nc[nH]c(=O)c4c3C)cc2)cc1 [CBK285857]	114.414%
O=C(NCC1CCOCC1)c1cc(-c2cccnc2)cnc1NCc1ccc2c(c1)OCO2 [CBK154825]	134.849%
O=c1[nH]c(-c2ccccc2)nc2c1CN(Cc1cccs1)CC2 [CBK282330]	129.802%
Cc1noc(C)c1C(=O)N1CCC[C@@H](C(=O)c2ccccc2F)C1 [CBK282249]	113.615%
O=C(Nc1nonc1-c1nc2ccccc2n1CCOC(=O)c1ccc(F)cc1)c1ccc(F)cc1 [CBK062653]	120.003%

Compound	% of control remaining
Cn1cc(-c2ncc(OCCOc3ccccc3)nc2N)cn1 [CBK145171]	99.9668%
COc1ccccc1N1CCN(CCC(=O)Nc2ccc(Br)c(C)c2)CC1 [CBK264218]	109.71%
CCN(CC)CCOc1cc(=O)oc2ccccc12 [CBK022747C]	130.022%
COc1ccccc1C(=O)Cn1c(=O)n(S(=O)(=O)c2ccccc2)c2ccccc21 [CBK106497]	162.312%
CC(C)NC(=O)Cn1nnc(-c2cccc(C(F)(F)F)c2)n1 [CBK304275]	74.3939%
O=C(CC(C(=O)O)n1cncn1)c1ccc(Br)cc1 (centres unmarked) [CBK269305]	111.628%
N#Cc1cccc(C(=O)N2CCN(c3ncccn3)CC2)c1 [CBK144498]	111.639%
O=C(c1cc2cc(F)ccc2[nH]1)N1CCN(c2ncccn2)CC1 [CBK107280]	77.4352%
CN(C)S(=O)(=O)N1CCN(c2ccc([N+](=O)[O-])c(NC3CC3)c2)CC1 [CBK265158]	130.079%
CC(=O)c1ccc(CN2CCN(S(=O)(=O)c3ccc(C(F)(F)F)cc3Cl)CC2)cc1 [CBK063072]	89.7461%
COc1cc(C(C)=O)ccc1OCCCCN1CCOCC1 [CBK269713C]	110.526%
Cc1ccc(NC(=O)c2cc([N+](=O)[O-])ccc2NCCN2C(=O)c3ccccc3C2=O)cc1 [CBK267159]	126.231%
COc1cc2c(cc1NC(=O)CSc1nc3ccccc3o1)oc1ccccc12 [CBK265154]	100%
Cc1ccc2[nH]cc(CCN3CCC4(C3)OCCc3c4[nH]c4ccccc34)c2c1 (centres unmarked) [CBK061790]	70.2465%
COc1ccccc1CC(=O)N1CC[C@@H]2NC(=O)[C@H]3C[C@H](NC(=O)C4CC4)CN3C(=O)[C@H]21 [CBK289267]	121.144%
Cc1cc(C)c2cc(C(=O)N(C)CC3(C)COC3)[nH]c2c1 [CBK281711]	131.84%
Cc1ccc(-c2nnc(CNC(=O)c3ccc(F)c(F)c3)o2)s1 [CBK284647]	140.217%
Cc1cc(C)nc(Nc2ncc(O)n2-c2ccccc2)n1 [CBK287914]	120.403%
O=[N+]([O-])c1cccc(S(=O)(=O)Nc2ccc(C(O)(C(F)(F)F)C(F)(F)F)cc2)c1 [CBK062093]	67.1488%
CC(C)c1nsc(NS(=O)(=O)c2cccc(C(F)(F)F)c2)n1 [CBK038881]	92.4722%
Cc1cnc2[nH]c(C3CCN(C(=O)c4scnc4C)CC3)cc2c1 [CBK284753]	154.146%
CN(C)CCN(C)c1cncc(-c2cccc(/C=C/C(=O)O)c2)n1 [CBK065451]	119.15%
Cc1ccc2c(CSc3nc(N)cc(N)n3)cc(=O)oc2c1C [CBK297519]	164.755%
O=C(CO)N1CC2(CCN(CCc3cccc4ccccc34)CC2)c2ccccc21 [CBK137003]	106.992%
CNS(=O)(=O)c1c(C)nn(-c2ccccc2)c1C [CBK086715]	87.3215%

2 entries from above, bar-delimited:
Compound | % of control remaining
Cc1ccc2c(CSc3nc(N)cc(N)n3)cc(=O)oc2c1C [CBK297519] | 164.755%
CNS(=O)(=O)c1c(C)nn(-c2ccccc2)c1C [CBK086715] | 87.3215%

Two consecutive records already listed, quoted:
Compound	% of control remaining
C=Cn1cc(CN2CCCC(c3cc4cccnc4[nH]3)C2)c(C)n1 (centres unmarked) [CBK284944]	75.7041%
COc1ccc([C@H]2CN(C(=O)c3ccccc3)[C@@H]3CCN(Cc4cccs4)C[C@H]23)cc1 [CBK285582]	81.6503%
